Assay results published in patent US5208227A, “Method, compositions, and compounds for modulating brain excitability” (priority 1991, dated 1993).
Entries after “also recorded” stand apart in the source; their conditions may differ.

Tested on: GBR complex ([35S]TBPS site)
Experiment: dissociation kinetics of [35S]TBPS in cortical P2 homogenates
Format: binding, rat
Procedure: An assay was performed to determine the effect of pentobarbital on the dissociation kinetics of [^35 S]TBPS in rat cerebral cortical membranes. This assay was performed in accordance with the procedures outlined above. […] Dissociation of bound [^35 S]TBPS was initiated by 2 micromolar TBPS in all cases.

CC(=O)[C@H]1CC[C@H]2[C@@H]3CC[C@H]4C[C@H](O)CC[C@]4(C)[C@H]3C(=O)C[C@]12C [5α-PREGNAN-3α-OL- 11,20-DIONE]
Total percentage of specific sites, rapidly dissociating (R) ((**P < 0.01 vs control), alphaxalone 300 nM, 3a-OH-DHP 20 nM): 34 ± 5 percentage
Total percentage of specific sites, slowly dissociating (S) ((*P < 0.05 vs control), alphaxalone 300 nM, 3a-OH-DHP 20 nM): 73 ± 4 percentage
k-1, rapidly dissociating component (R) ([35S]TBPS dissociation, alphaxalone 300 nM, 3a-OH-DHP 20 nM): 0.180 min⁻¹
k-1, slowly dissociating component (S) ([35S]TBPS dissociation, pentobarbital 30 nM [sic], alphaxalone 300 nM, 3a-OH-DHP 20 nM): 0.0120 min⁻¹
effect on dissociation mechanism/kinetics of [35S]TBPS (in words) (pentobarbital 30 micromolar, alphaxalone 300 nanomolar, 5-alpha-pregnan-3-alpha-hydroxy-20-one 20 nanomolar): absent; also recorded: do not influence the dissociation kinetics
